The values below come from patent US6171795.

Usually pKd stands for the Kd on a negative log10 scale, so that one unit is a factor of ten.

Series [1] deals with T1, murine CD8-murine CD40 ligand fusion (murine p40) (Mus musculus) (UniProt P27548).
T1 sequence (looked up, limits assumed): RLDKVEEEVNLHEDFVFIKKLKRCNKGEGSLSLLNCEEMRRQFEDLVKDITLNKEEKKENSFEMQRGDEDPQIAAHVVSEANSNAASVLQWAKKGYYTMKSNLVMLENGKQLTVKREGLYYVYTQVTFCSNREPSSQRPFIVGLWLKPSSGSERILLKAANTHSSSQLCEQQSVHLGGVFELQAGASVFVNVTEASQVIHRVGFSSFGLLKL
Put plainly: inhibition of the protein. To be noted: 2'-F pyrimidines (t printed for u); unable to inhibit binding of murine CD8-murine CD40L to cells; data not shown; purified recombinant protein; protein details: murine CD8 fusion; dose not given here.

Series [2] concerns the target T2, p40 (murine CD8-human CD40 ligand fusion + p40/p50) (Homo sapiens) (UniProt P29965).
T2 sequence (looked up, limits assumed): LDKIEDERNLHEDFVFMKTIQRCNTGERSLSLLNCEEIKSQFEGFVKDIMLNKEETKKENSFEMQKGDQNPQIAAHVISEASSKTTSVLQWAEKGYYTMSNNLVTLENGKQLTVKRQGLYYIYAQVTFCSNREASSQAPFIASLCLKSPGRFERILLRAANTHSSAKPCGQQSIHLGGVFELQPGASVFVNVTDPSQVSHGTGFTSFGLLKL
Put plainly: binding assay. Particulars: 2'-F pyrimidines (t printed for u); biphasic binding curve, plateau RNA binding poor (~15%); assay method not stated; purified recombinant protein.

Series [3] deals with T3, CD40 ligand (full-length, on transfected Ltk cells clone #279) (Homo sapiens) (UniProt P29965).
T3 sequence (looked up): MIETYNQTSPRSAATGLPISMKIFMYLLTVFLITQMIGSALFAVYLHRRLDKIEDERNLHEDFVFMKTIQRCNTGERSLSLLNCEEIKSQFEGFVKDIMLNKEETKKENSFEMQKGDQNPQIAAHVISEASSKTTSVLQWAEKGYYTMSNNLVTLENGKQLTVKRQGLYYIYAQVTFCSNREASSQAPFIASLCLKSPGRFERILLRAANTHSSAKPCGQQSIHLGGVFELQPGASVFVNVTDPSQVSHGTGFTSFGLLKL
Put plainly: flow cytometry. Particulars: 2'-F pyrimidines (t printed for u); biotinylated aptamers stain hCD40L Ltk cells, SA-PE, 4 C; protein on the cell surface; label: biotin; variant of p40R6.8 (p40 Aptamer 8).

pKd: −log10 of the molar value. For some of these results: No signal at the amounts used counts as a negative. Where a protein sequence is shown, tags need not be part of it. For some of these results: Where cells or extracts were used, other partners may take part. For some of these results: Construct, isoform or probe ends are uncertain for at least one entry.

Turning to “GGGAGGACGAUGCGGAAUGUUUAUUCAUAGAACAGGGUCUACUCAUCACAUCCCCCAGACGACUCGCCCG [p18R6.7 (p18 Aptamer 7)]”, the “functional effect of the aptamer” value in series [1] is reported as “not active”. With “GGGAGGACGAUGCGGAUCUACGCACUCGCAAAAGCAUCAAAUGUGUCCGCCGCCUCAGACGACUCGCCCG [p40R6.8 (p40 Aptamer 8)]”, in series [2], the pKd is 9.70. For the same sequence, the “functional effect of the aptamer” value in series [1] is reported as “not active”. As for “GGGAGGACGAUGCGGAUCUACGCACUCGCAAAAGCAUCAAAUGUGUCCGCCGCCUCAGACGACUCGCCCG [p40R6.8-biotin]”, in series [3], the binding result is on record as “binds”.
